Laboratory results: PubChem BioAssay AID504774 (Drosophila RNAi Screening Center, 2011)
The deposit covers about 23,000 reagents; below is an unselected part of those that have a named target and a result. 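Values are quantile-normalised luminescence on an arbitrary scale; higher means more cells surviving MMS.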 The numbers tell different reagents against one gene apart. Not all columns of the deposit are shown.

Aim: 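Genes required for cells to withstand methyl methanesulphonate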 (primary screen)
Cells: Drosophila Kc167 cells
Knock-down reagent: long dsRNA against Drosophila genes, about 0.25 µg dsRNA per well
Time to read-out: about 6 days: 3 days knock-down, then 3 days with or without MMS
Challenge: methyl methanesulphonate 0.004% (w/v) for 3 days after knock-down
Detection: 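ATP-dependent luminescence as a measure of live cells in MMS-exposed wells, quantile normalised within each plate, with replicate values also given as a mean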
Direction: mean viability with MMS and viability with MMS: higher = more surviving cells after MMS

| gene knocked down | reagent no. | mean viability with MMS | viability with MMS, replicate 1 |
| --- | --- | --- | --- |
| CG10598 | 1 | 3.30e6 | 3.63e6 |
| CG5455 | 1 | 3.58e6 | 4.06e6 |
| Pcf11 | 1 | 2.92e6 | 3.51e6 |
| CG33136 | 1 | 3.45e6 | 4.01e6 |
| CG8006 | 1 | 3.38e6 | 3.80e6 |
| CG5292 | 1 | 3.57e6 | 4.15e6 |
| CG9776 | 1 | 3.43e6 | 3.86e6 |
| Vps53 | 1 | 3.59e6 | 4.05e6 |
| CG8519 | 1 | 3.61e6 | 4.27e6 |
| CG11151 | 1 | 3.61e6 | 4.33e6 |
| CG34161 | 1 | 3.48e6 | 3.96e6 |
| Gtpx | 1 | 3.81e6 | 4.34e6 |
| Gtpx | 2 | 3.32e6 | 3.89e6 |
| CG10376 | 1 | 3.60e6 | 4.06e6 |
| CG16782 | 1 | 3.46e6 | 3.86e6 |
| Obp93a | 1 | 3.50e6 | 3.87e6 |
| Hpd | 1 | 3.62e6 | 4.07e6 |
| CG15283 | 1 | 3.66e6 | 4.14e6 |
| mts | 1 | 2.88e6 | 3.10e6 |
| myd | 1 | 3.21e6 | 3.66e6 |
| myd | 2 | 3.55e6 | 4.09e6 |
| laf | 1 | 3.36e6 | 3.84e6 |
| CG3224 | 1 | 3.44e6 | 3.88e6 |
| Mst84Dc | 1 | 3.59e6 | 3.84e6 |
| CG30022 | 1 | 3.57e6 | 4.08e6 |
| CG14070 | 1 | 3.64e6 | 4.18e6 |
| CG30416 | 1 | 3.44e6 | 3.86e6 |
| CG12446 | 1 | 3.55e6 | 4.11e6 |
